Laboratory results: PMC6661766, “Antimicrobial, antioxidant and cytotoxic evaluation of diazenyl chalcones along with insights to mechanism of interaction by molecular docking studies” (BMC Chemistry, 2019)

System: A549 human lung cancer cell line
Test: MTT cytotoxicity assay, A549
Assay type: cell-based
Settings: IC50 ratio of normal cell line to carcinoma cell line
Protocol: The cell lines employed in the investigation were purchased from the National Centre for Cell Sciences (NCCS), Pune, India. The cell lines were cultured in DMEM fortified with 10% FBS, L-glutamine, sodium bicarbonate, and solution of antibiotics (streptomycin 100 μg ml^−1 + penicillin-100 U ml^−1). The culture of cell lines was stored under 5% CO2 incubation at 37 °C.
The compounds showing maximum activity (antimicrobial and antioxidant potential) were screened for cytotoxicity against A549 and HEK cell lines using MTT assay. Initially, 96-well microculture plate was seeded with 1 × 10^4 cells in 100 µl/well DMEM/MEM, supplemented with 10% FBS followed by incubation at a temperature of 37 °C for a period of 24 h under 5% CO2 atmosphere. After that, the test compounds and camptothecin were added to the cells to achieve a concentration of 10, 25, 50 and 100 µg. MTT reagent (10 µl) of concentration of 5 mg ml^−1 added to all the wells after the duration of 48 h. The plate was incubated further for 4 h followed by careful removal of supernatant from each well. To dissolve the formazan crystals, 100 µl of DMSO was added, and the ELISA reader was used to check the absorbance at 570 nm wavelength. In order to calculate the IC50 concentration, the following equation, i.e. A = Bx + C, was used. In this case, A = 50, while the values B and C values were obtained from the survival curve plot. This study was carried out in duplicate.

Row | Structure (SMILES) | Ratio (HEK/A549)
1 | CC[C@@]1(O)C(=O)OCc2c1cc1n(c2=O)Cc2cc3ccccc3nc2-1 [Std, camptothecin, reference compound] | 1.03
2 | O=C(/C=C\c1ccco1)c1ccc(N=Nc2c(O)cccc2O)cc1 [Compound C-24, (2Z)-1-(4-((2,6-Dihydroxyphenyl)diazenyl)phenyl)-3-(furan-2-yl)prop-2-en-1-one] | 2.59
3 | O=C(/C=C\c1ccc(Cl)cc1Cl)c1cccc(N=Nc2cccc(Cl)c2Cl)c1O [Compound C-19, (2Z)-3-(2,4-Dichlorophenyl)-1-(3-((2,3-dichlorophenyl)diazenyl)-2-hydroxyphenyl)prop-2-en-1-one] | 1.58
4 | O=Cc1ccc(/C=C\C(=O)c2ccc(N=Nc3c(O)cccc3O)cc2)cc1 [Compound C-23, 4-((1Z)-3-(4-((2,6-Dihydroxyphenyl)diazenyl)phenyl)-3-oxoprop-1-en-1-yl)benzaldehyde] | 1.11
5 | O=C(/C=C\c1cc(Br)ccc1O)c1ccc(N=Nc2ccc([N+](=O)[O-])cc2Cl)c(O)c1 [Compound C-22, (2Z)-3-(5-Bromo-2-hydroxyphenyl)-1-(4-((2-chloro-4-nitrophenyl)diazenyl)-3-hydroxyphenyl) prop-2-en-1-one] | 1.90
6 | O=Cc1ccc(/C=C\C(=O)c2cccc(N=Nc3cccc(Cl)c3Cl)c2O)cc1 [Compound C-25, 4-((1Z)-3-(3-((2,3-Dichlorophenyl)diazenyl)-2-hydroxyphenyl)-3-oxoprop-1-en-1-yl)benzaldehyde] | 15
7 | COc1ccccc1/C=C\C(=O)c1ccc(N=Nc2c(O)cccc2O)cc1 [Compound C-27, (2Z)-1-(4-((2,6-Dihydroxyphenyl)diazenyl)phenyl)-3-(2-methoxyphenyl)prop-2-en-1-one] | 2.67
